Experimental data from publication doi:10.1101/2020.06.04.134395.
These are yes or no findings as the source states them, for the method shown.

Protein sequences, listed by entry. Tags and fused reporters are not part of them. Residues count along the entry.
UniProt P00282, 21-148: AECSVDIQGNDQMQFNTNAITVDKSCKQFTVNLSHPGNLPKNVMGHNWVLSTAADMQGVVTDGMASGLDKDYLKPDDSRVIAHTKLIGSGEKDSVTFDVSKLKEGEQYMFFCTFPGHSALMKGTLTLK

Molecular target: T1, Pseudomonas aeruginosa OprC (PA3790), OM-purified, wild type (P. aeruginosa PAO1) (UniProt G3XD89)
T1 sequence: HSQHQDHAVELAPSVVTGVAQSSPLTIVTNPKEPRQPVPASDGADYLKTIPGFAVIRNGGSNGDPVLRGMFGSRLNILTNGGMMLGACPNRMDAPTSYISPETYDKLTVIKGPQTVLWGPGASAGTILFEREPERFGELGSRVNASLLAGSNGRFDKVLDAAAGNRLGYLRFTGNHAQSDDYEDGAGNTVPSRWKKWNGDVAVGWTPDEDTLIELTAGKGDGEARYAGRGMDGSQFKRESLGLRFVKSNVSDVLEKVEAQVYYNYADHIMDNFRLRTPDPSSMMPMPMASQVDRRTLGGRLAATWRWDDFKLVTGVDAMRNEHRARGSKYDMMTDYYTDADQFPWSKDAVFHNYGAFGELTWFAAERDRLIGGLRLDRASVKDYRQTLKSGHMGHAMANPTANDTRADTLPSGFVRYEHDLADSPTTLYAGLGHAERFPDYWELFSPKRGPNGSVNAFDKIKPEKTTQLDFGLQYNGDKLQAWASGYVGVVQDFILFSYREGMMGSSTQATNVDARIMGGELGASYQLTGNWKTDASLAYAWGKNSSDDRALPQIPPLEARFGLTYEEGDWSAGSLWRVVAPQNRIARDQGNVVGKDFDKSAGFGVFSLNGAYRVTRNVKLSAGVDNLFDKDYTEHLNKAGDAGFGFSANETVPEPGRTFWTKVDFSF
Experiment: SEC

azurin (from UniProt P00282 21-148)
binding: no binding
